Drawing on PubChem BioAssay AID493014 (National Center for Advancing Translational Sciences (NCATS), 2011), this text covers AC50 for 64 molecules.

Some of the results follow. The main result of the screen is listed elsewhere. These columns were measured beside it and carry no call. Compounds called inactive in the main read-out are mostly missing here. Potencies come from curve fits of mixed quality, noted in brackets.

A short description of the experiment: qHTS Assay to Find Inhibitors of Chronic Active B-Cell Receptor Signaling. Particulars: ABC-DLBCL IkBa-CBG/CBR reporter, luminescence ratio (green luciferase fused to IkBa over red control in TMD8 lymphoma cells), 4 h. In a few lines:
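Cell line TMD8 (human ABC DLBCL), stably expressing tet-inducible CBG68-IkBa fusion and CBR; IMDM/0.5% FBS; cpd up to 46 uM; dox induction, 4 h, 37C/5% CO2; dual luminescence; green/red ratio; MG132 control.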

[1] abbreviates: measured here: CBR red luminescence, cell number.
Where [2] appears, read: measured here: IkBa-CBG green luminescence.

As to `Cc1ccc(C(=O)Nc2cccc(C(=O)N/N=C/c3ccc(O)cc3)c2)cc1`, the AC50 under setting [1] is 3.98 µM [falling, partial curve]. With `COc1ccc2c(c1)[C@H]1[C@H](CO2)[C@H](c2ccccc2)[C@]2(C)C(=O)Nc3ccc(Br)cc3C(=O)N12`, the AC50 under setting [1] is 23.1 µM [falling, partial curve].

Regarding `CCOC(=O)C1CCN(C(=O)c2cccc(NC(=O)C(CC)CC)c2)CC1`, under setting [1], the AC50 is 3.66 µM [rising, full curve, poor fit].

With `CN1CCC(=O)N([C@H](CSc2ccc(Br)cc2)c2ccccc2)CC1`, the AC50 under setting [1] was 8.91 µM [falling, partial curve, poor fit]. Regarding `Cc1ccc(NC(=O)CSc2nc(N)c3cc4c(nc3n2)CCCC4)cc1`, the AC50 under setting [2] was 23.1 µM [rising, partial curve, poor fit]. For `CCn1nnnc1SCC(=O)N1CCN(c2ccccc2)CC1`, under setting [1], the AC50 was 11.2 µM [rising, single point].

As to `Clc1cccc(-n2ncc3c(NC4CCCCCC4)ncnc32)c1`, under setting [1], the AC50 was 0.794 µM [falling, full curve].

`CCc1ccc(/C=C2/C(=O)NC(=O)N2C(C)=O)cc1`: the AC50 under setting [1] is 3.55 µM [rising, full curve, poor fit]. On the same count and under the same terms, with `O=C(NCc1ccco1)c1ccc(COc2cccc3ccccc23)cc1` the figure was 1.03 µM [falling, full curve].

For `Cc1ccc(C)c(OCc2n[nH]c(=S)o2)c1`, the AC50 under setting [1] was 0.708 µM [rising, full curve, poor fit]. For the molecule `CCN(C(=O)c1ccco1)c1nnc(-c2cccnc2)s1`, the AC50 under setting [1] is 7.94 µM [falling, partial curve, poor fit].

Consider `O=C(NCc1ccccc1)c1cccc(OCC(=O)N2CCN(C(=O)c3ccco3)CC2)c1`, for which, under setting [1], the AC50 is 10 µM [falling, partial curve]. Still for that read-out and setting: with `COc1ccccc1OCc1ccc(C(=O)OCC2CCCO2)o1` (stereo unspecified) the figure was 4.61 µM [falling, partial curve, poor fit]. With `Cc1ccc(CN2C(=O)c3ccccc3NC2c2cc(Br)ccc2O)cc1` (stereo unspecified), the AC50 under setting [1] was 35.5 µM [falling, single point]. As for `Cc1ccc(CN2CCN(c3cccc4[nH]ccc34)CC2)cc1`, the AC50 under setting [1] was 1.26 µM [falling, full curve, poor fit]. On the same count and under the same terms, with `COC(CNC(=O)c1cc(S(=O)(=O)N2CCc3ccccc32)ccc1F)OC` the figure was 6.31 µM [rising, single point]; with `Cc1noc(C)c1COc1ccc(C(=O)OCC(=O)NCc2ccccc2Cl)cc1`, 29.1 µM [rising, single point]. As for `CC(C)(C)OC(=O)N[C@H](C(=O)OC(C)(C)C)c1ccc(Br)cc1`, the AC50 under setting [1] is 20.6 µM [rising, partial curve, poor fit].

In the case of `COc1ccc(N=Cc2oc3ccc4ccccc4c3c2O)cc1`, the AC50 under setting [1] is 0.316 µM [falling, full curve]. On the same count and under the same terms, the result for `O=C(Nc1ccc(F)cc1)c1ccc(S(=O)(=O)NCc2cccnc2)cc1` reads 3.55 µM [falling, single point]. Same read-out and setting: the result for `Cc1cccc([N+](=O)[O-])c1NC(=O)COC(=O)C1CCCO1` (stereo unspecified) reads 7.31 µM [rising, partial curve, poor fit]. As for `O=C(c1ccc(S(=O)(=O)N2CCOCC2)cc1)N1CCN=C1SCc1cccnc1`, the concentration at half-maximal activity (AC50) under setting [1] was 0.0891 µM [falling, full curve, poor fit]. Regarding `COc1ccc(CCN(C)CCCC(C#N)(c2cc(OC)c(OC)c(OC)c2)C(C)C)cc1OC` (stereo unspecified), the AC50 under setting [1] is 29.1 µM [falling, single point]. With `O=C(NCCSCc1ccccc1)c1ccc(C2SCC(=O)N2Cc2ccccc2)cc1` (stereo unspecified), the AC50 under setting [1] is 4.11 µM [falling, single point]. On the same count and under the same terms, the result for `CCN(CC)CC(O)COc1ccc2c(c1)c(C(C)=O)c(C)n2-c1ccccc1` (stereo unspecified) reads 20.6 µM [rising, single point]. With `Cc1nc(NCCOc2ccccc2)sc1C(=O)Nc1ccccc1`, the AC50 under setting [1] is 11.2 µM [falling, partial curve, poor fit]. `COc1ccccc1Nc1nc(N)nc(-c2cc3ccccc3o2)n1`: under setting [1], the AC50 is 0.259 µM [falling, full curve]. Consider `O=[N+]([O-])c1ccc(-[n+]2ccc3ccccc3c2)c([N+](=O)[O-])c1`, for which the AC50 by setting is: under setting [1], 16.4 µM [falling, single point]; under setting [2], 13 µM [rising, partial curve, poor fit]. On to `O=C(/C=C/c1ccco1)NC(=S)Nc1ccc(Cl)cn1`, for which, under setting [1], the AC50 was 29.1 µM [falling, single point].

As for `Cc1ccc(C(=O)N/N=C/c2ccc(-c3cccc(Cl)c3)o2)cn1`, the half-maximal activity concentration (AC50) under setting [1] was 0.794 µM [falling, full curve]. As for `Cc1ccc(Nc2cnn(C34CC5CC(CC(CC(=O)O)(C5)C3)C4)c(=O)c2Cl)cc1`, the AC50 under setting [1] was 4.61 µM [falling, single point].

Take `CNC(=O)NC(=O)C(C)OC(=O)c1c(C)noc1C` (stereo unspecified): the AC50 under setting [1] was 20.6 µM [rising, single point]. As for `N=c1c2c(-c3ccccc3)c(-c3ccccc3)n(Cc3ccccc3)c2ncn1CCO`, the AC50 under setting [1] is 20 µM [falling, partial curve, poor fit].

For the molecule `O=C(Nc1ccccc1)C(=O)Nc1cccnc1`, the AC50 under setting [1] was 1.58 µM [falling, full curve]. Turning to `NS(=O)(=O)c1cccc(NC(=O)c2cc3ccccc3o2)c1`, the AC50 under setting [1] is 20 µM [falling, single point]. The same measure, in the same setting: with `O=[N+]([O-])c1cccc(/C=C/c2ccc3cccc(O)c3n2)c1` the figure was 35.5 µM [falling, single point]; with `Cc1ccccc1C(=O)N1CCN(c2ccc(NC(=O)CSc3ccc(Cl)cc3)cc2)CC1`, 0.224 µM [falling, full curve, poor fit]; with `O=C1C=C(NCc2ccccc2)c2ccccc2C1=O`, 35.5 µM [falling, single point]. In the case of `Cc1ccc(CN2C(=O)CCC2C(=O)NCCN2CCN(c3cccc(Cl)c3)CC2)cc1` (stereo unspecified), the AC50 under setting [1] is 35.5 µM [falling, single point]. With `OCCCCCN=c1cc(-c2ccccc2)oc2ccc(Cl)cc12`, the AC50 under setting [1] is 1.41 µM [rising, partial curve]. On the same count and under the same terms, the result for `O=C(CSc1nnc(N2CCCC2)n1-c1ccccc1Cl)N1CCN(c2ccccn2)CC1` reads 2.31 µM [rising, partial curve]; that for `Cc1ccccc1C(=O)Nc1ccc(N2CCOCC2)nc1`, 8.91 µM [falling, partial curve]; that for `COc1cc(/C=C/C(=O)O)cc(Br)c1O`, 12.6 µM [falling, single point]. On the same count and under the same terms, with `O=C(c1nn2c(C(F)(F)F)cc(-c3cccs3)nc2c1Br)N1CCCc2ccccc21` the figure was 1.64 µM [falling, partial curve, poor fit].

As to `COc1cc2c(C(=O)N3CCN(c4cccc(Cl)c4)CC3)cn(CC(C)C)c(=O)c2cc1OC`, the AC50 under setting [1] was 20.6 µM [falling, single point]. Still for that read-out and setting: with `CSc1nsc(/C=C/Nc2ccc(O)cc2C)c1C#N` the figure was 6.31 µM [rising, single point]. In the case of `CCOC(=O)c1c(C)[nH]c(C(=O)N/N=C/c2ccc(Br)cc2)c1C`, the AC50 reads like this: under setting [1], 4.11 µM [rising, partial curve]; under setting [2], 1.84 µM [falling, full curve]. With `CSc1cccc(NC(=O)/C=C/c2ccccc2)c1`, the AC50 under setting [1] was 11.2 µM [falling, partial curve].

With `CCOC(=O)C1=CC[C@H]2c3c(c4ccccc4n3C)C[C@H]1N2C`, the AC50 under setting [1] was 29.1 µM [falling, single point]. For the molecule `COC(=O)Cc1ccc(NC(=O)c2cccs2)cc1`, the AC50 under setting [1] was 13 µM [falling, partial curve, poor fit]. With `c1csc(C(c2nnnn2C2CCCC2)N2CCOCC2)c1` (stereo unspecified), the AC50 under setting [1] is 2 µM [rising, full curve, poor fit]. `COCCNS(=O)(=O)c1cc2[nH]c3c(c2cc1C)C(=O)CC(C)(C)C3`: the AC50 under setting [1] was 10 µM [rising, single point]. Same read-out and setting: with `COc1ccc(C)cc1-n1c(SCC(=O)Nc2cccc(C(=O)O)c2)nc2ccccc2c1=O` the figure was 6.31 µM [rising, full curve, poor fit]; with `CCOC(=O)c1c(/N=C/c2cc(C)ccc2O)sc2c1CCN(C)C2`, 0.103 µM [falling, full curve, poor fit]. On the same count and under the same terms, the result for `Cc1ccc(NC(=O)c2nc[nH]c2C(=O)N2CCN(c3ccccc3)CC2)cc1` reads 2.24 µM [rising, partial curve]; that for `COc1ccc2c(c1)cc1n2CCN=C1NN`, 0.103 µM [rising, full curve, poor fit]. As for `CCOC(=O)c1ccc(N2N=C(C)/C(=C/C=C/c3ccco3)C2=O)cc1`, the AC50 under setting [1] is 0.731 µM [falling, full curve]. As for `CN(C)CCn1c2c(c(SCC(=O)Nc3cccc(C(F)(F)F)c3)nc1=O)CCCC2`, the AC50 under setting [1] was 6.51 µM [falling, partial curve, poor fit]. As to `O=S(=O)(N/N=C/c1ccccc1OCc1ccc(Cl)cc1)c1ccccc1`, under setting [2], the AC50 was 20.6 µM [falling, single point]. For the molecule `CCOC(=O)c1cc2c(=O)n3ccccc3nc2n(Cc2ccco2)c1=NC(=O)c1cccc(Br)c1`, under setting [1], the AC50 was 22.4 µM [falling, partial curve, poor fit].

On to `CCN(CC)CCNCc1ccc(-c2ccc(Cl)cc2)o1`, for which the AC50 under setting [1] was 11.2 µM [falling, partial curve, poor fit]. As for `O=C(Nc1ccc(C(=O)O)cc1)/C(=C\C=C\c1ccccc1)NC(=O)c1ccccc1Br`, under setting [1], the AC50 was 10 µM [falling, partial curve, poor fit]. In the case of `COC(=O)c1sccc1NC(=O)Nc1cccc(OC)c1`, the AC50 under setting [1] was 1.26 µM [falling, full curve]. Turning to `CN(C)c1ccc(CNC(=O)c2ccc(CNc3c(N4CCCCC4)c(=O)c3=O)cc2)cc1`, the AC50 under setting [1] was 8.2 µM [rising, partial curve].
